Measurements as given in patent US20220242812A1, “SWELL1-LRRC8 COMPLEX MODULATORS” (Washington University, priority 2019, published 2022).
Some of these results come from one statement about several compounds together.

Experiment: In vivo pharmacokinetics in mice
Conditions: 5 mg/kg i.p. or p.o.
Protocol: Male C57/BL6 mice were used in the study and assessed for a single dose (5 mg/kg) administration. The compounds were prepared in Cremaphor for i.p. and p.o dose routes and in 5% ethanol, 10% Tween-20 and water mix for i.v. route at a final concentration of 1 mg/ml. […] The blood samples were collected in tubes with K2 EDTA anticoagulant and further processed to collect plasma by centrifugation at 3500 rpm at 5° C. for 10 min Samples were further processed in LC/MS to determine the concentration of the compounds. Non-compartmental analysis was performed to obtain the PK parameters using the PKPlus software package (Simulation Plus). The area under the plasma concentration-time curve (AUCint) is calculated from time 0 to infinity where the Cmax is the maximal concentration achieved in plasma and t112 is the terminal elimination half-life. Oral bioavailability was calculated as AUCorailAUC1v*100.

CCCCC1(C2CCCC2)Cc2cc(OCCCC(=O)O)c(Cl)c(Cl)c2C1=O (stereo not shown) [SN-401, 4-((2-butyl-6,7-dichloro-2-cyclopentyl-1-oxo-2,3-dihydro-1H-inden-5-yl)oxy)butanoic acid]
Time plasma concentrations exceed those sufficient for SWELL1 pharmacological chaperone activity (>~100 nM): 8-12 hours
